# Data as given in patent publication US20230174472A1, “THERAPEUTIC USE OF PLEUROMUTILINS” (priority 2020, published 2023).
# At least one compound was matched to its structure with a doubt left.
# Tested on: mice challenged with lipopolysaccharide (LPS)
# Test: LPS induced lung neutrophilia model, BALF cell counts 4 h post LPS (Example 1)
# Details: 0.5 mg/kg PO one hour prior LPS challenge
smiles,measurement,value
"C[C@@H]1C[C@H]2[C@@H]3CCC4=CC(=O)C=C[C@]4(C)[C@@]3(F)[C@@H](O)C[C@]2(C)[C@@]1(O)C(=O)CO [Dexamethasone, reference compound]",neutrophil cell count in BALF,statistically significant reduction
same,total cell count in BALF,statistically significant reduction
